B1: PWP2 (protein, UniProt Q15269 1-919, looked up)
Periodic tryptophan protein 2 …: MKFAYRFSNLLGTVYRRGNLNFTCDGNSVISPVGNRVTVFDLKNNKSDTLPLATRYNVKCVGLSPDGRLAIIVDEGGDALLVSLVCRSVLHHFHFKGSVHSVSFSPDGRKFVVTKGNIAQMYHAPGKKREFNAFVLDKTYFGPYDETTCIDWTDDSRCFVVGSKDMSTWVFGAERWDNLIYYALGGHKDAIVACFFESNSLDLYSLSQDGVLCMWQCDTPPEGLRLKPPAGWKADLLQREEEEEEEEDQEGDRETTIRGKATPAEEEKTGKVKYSRLAKYFFNKEGDFNNLTAAAFHKKSHLLVTGFASGIFHLHELPEFNLIHSLSISDQSIASVAINSSGDWIAFGCSGLGQLLVWEWQSESYVLKQQGHFNSMVALAYSPDGQYIVTGGDDGKVKVWNTLSGFCFVTFTEHSSGVTGVTFTATGYVVVTSSMDGTVRAFDLHRYRNFRTFTSPRPTQFSCVAVDASGEIVSAGAQDSFEIFVWSMQTGRLLDVLSGHEGPISGLCFNPMKSVLASASWDKTVRLWDMFDSWRTKETLALTSDALAVTFRPDGAELAVATLNSQITFWDPENAVQTGSIEGRHDLKTGRKELDKITAKHAAKGKAFTALCYSADGHSILAGGMSKFVCIYHVREQILMKRFEISCNLSLDAMEEFLNRRKMTEFGNLALIDQDAGQEDGVAIPLPGVRKGDMSSRHFKPEIRVTSLRFSPTGRCWAATTTEGLLIYSLDTRVLFDPFELDTSVTPGRVREALRQQDFTRAILMALRLNESKLVQEALEAVPRGEIEVVTSSLPELYVEKVLEFLASSFEVSRHLEFYLLWTHKLLMLHGQKLKSRAGTLLPVIQFLQKSIQRHLDDLSKLCSWNHYNMQYALAVSKQRGTKRSLDPLGSEEEAEASEDDSLHLLGGGGRDSEEEMLA
B2: NOC3L (protein, UniProt Q8WTT2 1-800, looked up)
Nucleolar complex protein 3 …: MKARRNKKQIPSFRKLIKTSKVKLENKLKNKQFKQQSTLKKYRKEQRKLRQAVKDAVSKKPIPLENPKEKRPGKRIEREEEEEEEALPLDMMDEDDLQLMKDLGQRVSFLTRDLSSSEPVHAKKRKHERIIDKYEKIPRTLQTAPEKELIHLLPIKDKSGIIPQTREKPVTDSNKDEEDQEEERELEEEIIEDPIQELTIEEHLIERKKKLQEKKMHIAALASAILSDPENNIKKLKELRSMLMEQDPDVAVTVRKLVIVSLMELFKDITPSYKIRPLTEAEKSTKTRKETQKLREFEEGLVSQYKFYLENLEQMVKDWKQRKLKKSNVVSLKAYKGLAEVAVKSLCELLVALPHFNFHNNIIVLIVPLMNDMSKLISEMCCEAVKKLFKQDKLGQASLGVIKVISGFVKGRNYEVRPEMLKTFLCLRIKEVEVKKDTEDINKPKKFMTFKEKRKSLSRMQRKWKKAEEKLERELREAEASESTEKKLKLHTETLNIVFVTYFRILKKAQRSPLLPAVLEGLAKFAHLINVEFFDDLLVVLHTLIESGDLSYQESLHCVQTAFHILSGQGDVLNIDPLKFYTHLYKTLFKLHAGATNEGVEIVLQCLDVMLTKRRKQVSQQRALAFIKRLCTLALHVLPNSSIGILATTRILMHTFPKTDLLLDSESQGSGVFLPELDEPEYCNAQNTALWELHALRRHYHPIVQRFAAHLIAGAPSEGSGALKPELSRRSATELFEAYSMAEMTFNPPVESSNPKIKGKFLQGDSFLNEDLNQLIKRYSSEVATESPLDFTKYLKTSLH
B3: WDR43 (protein)
chain: MAAGGGGSCDPLAPAGVPCAFSPHSQAYFALASTDGHLRVWETANNRLHQEYVPSAHLSGTCTCLAWAPARLQAKESPQRKKRKSEAVGMSNQTDLLALGTAVGSILLYSTVKGELHSKLISGGHDNRVNCIQWHQDSGCLYSCSDDKHIVEWNVQTCKVKCKWKGDNSSVSSLCISPDGKMLLSAGRTIKLWVLETKEVYRHFTGHATPVSSLMFTTIRPPNESQPFDGITGLYFLSGAVHDRLLNVWQVRSENKEKSAVMSFTVTDEPVYIDLTLSENKEEPVKLAVVCRDGQVHLFEHILNGYCKKPLTSNCTIQIATPGKGKKSTPKPIPILAAGFCSDKMSLLLVYGSWFQPTIERVALNSREPHMCLVRDISNCWAPKVETAITKVRTPVMNSEAKVLVPGIPGHHAAIKPAPPQTEQVESKRKSGGNEVSIEERLGAMDIDTHKKGKEDLQTNSFPVLLTQGLESNDFEMLNKVLQTRNVNLIKKTVLRMPLHTIIPLLQELTKRLQGHPNSAVLMVQWLKCVLTVHASYLSTLPDLVPQLGTLYQLMESRVKTFQKLSHLHGKLILLITQVTASEKTKGATSPGQKAKLVYEEESSEEESDDEIADKDSEDNWDEDEEESESEKDEDVEEEDEDAEGKDEENGEDRDTASEKELNGDSDLDPENESEEE
B4: UTP15 (protein, UniProt Q8TED0 2-518, looked up)
U3 small nucleolar …: AGYKPVAIQTYPILGEKITQDTLYWNNYKTPVQIKEFGAVSKVDFSPQPPYNYAVTASSRIHIYGRYSQEPIKTFSRFKDTAYCATFRQDGRLLVAGSEDGGVQLFDISGRAPLRQFEGHTKAVHTVDFTADKYHVVSGADDYTVKLWDIPNSKEILTFKEHSDYVRCGCASKLNPDLFITGSYDHTVKMFDARTSESVLSVEHGQPVESVLLFPSGGLLVSAGGRYVKVWDMLKGGQLLVSLKNHHKTVTCLCLSSSGQRLLSGSLDRKVKVYSTTSYKVVHSFDYAASILSLALAHEDETIVVGMTNGILSVKHRKSEAKKESLPRRRRPAYRTFIKGKNYMKQRDDILINRPAKKHLELYDRDLKHFRISKALDRVLDPTCTIKTPEITVSIIKELNRRGVLANALAGRDEKEISHVLNFLIRNLSQPRFAPVLINAAEIIIDIYLPVIGQSPVVDKKFLLLQGLVEKEIDYQRELLETLGMMDMLFATMRRKEGTSVLEHTSDGFPENKKIES
B5: UTP3 (protein, UniProt Q9NQZ2 1-479, looked up)
Something about silencing …: MVGRSRRRGAAKWAAVRAKAGPTLTDENGDDLGLPPSPGDTSYYQDQVDDFHEARSRAALAKGWNEVQSGDEEDGEEEEEEVLALDMDDEDDEDGGNAGEEEEEENADDDGGSSVQSEAEASVDPSLSWGQRKKLYYDTDYGSKSRGRQSQQEAEEEEREEEEEAQIIQRRLAQALQEDDFGVAWVEAFAKPVPQVDEAETRVVKDLAKVSVKEKLKMLRKESPELLELIEDLKVKLTEVKDELEPLLELVEQGIIPPGKGSQYLRTKYNLYLNYCSNISFYLILKARRVPAHGHPVIERLVTYRNLINKLSVVDQKLSSEIRHLLTLKDDAVKKELIPKAKSTKPKPKSVSKTSAAACAVTDLSDDSDFDEKAKLKYYKEIEDRQKLKRKKEENSTEEQALEDQNAKRAITYQIAKNRGLTPRRKKIDRNPRVKHREKFRRAKIRRRGQVREVRKEEQRYSGELSGIRAGVKKSIKLK

Test system: BAF complex subunits and histone proteins
Assay: Mass spectrometry proteomics of purified HA-SS18 WT and HA-SS18-SSX1 complexes (Tables 5A-5E)
Design: species or system human
Details: HEK-293T
[1] = HA-SS18SSX1_CHR_peptides: protein identified in the HA-SS18-SSX1 purification from solubilized chromatin (CHR)
[2] = HA-SS18SSX1_NE_peptides (Table 5B), HA-SS18-SSX1 BAF complex purification from soluble nuclear extract
[3] = HA-SS18WT_CHR_peptides: HA-SS18 WT purification from nuclease-treated solubilized chromatin (CHR), label = protein identified
[4] = HA-SS18SSX1 purification, NE (soluble nuclear extract) fraction, peptides per identified protein
[5] = HA-SS18WT_NE_peptides: HA-SS18 WT complexes purified from nuclear extract (NE), label = protein identified (Gene Symbol)
[6] = HA-SS18WT_CHR_peptides: protein identified in HA-SS18 WT BAF complex purification from nuclease-treated solubilized chromatin (CHR)

| Molecule | Total (total peptides) [1] | Unique (unique peptides) [1] | Total (peptides) [2] | Unique (peptides) [2] | Total (peptides) [3] | Unique (peptides) [3] | Total (total peptides) [4] | Unique (unique peptides) [4] | Total (peptides) [5] | Unique (peptides) [5] | Total (total peptides) [6] | Unique (unique peptides) [6] |
| --- | --- | --- | --- | --- | --- | --- | --- | --- | --- | --- | --- | --- |
| B1 | 6 | 6 | 1 | 1 | 5 | 5 | – | – | – | – | – | – |
| B2 | 6 | 6 | – | – | 8 | 8 | – | – | – | – | – | – |
| B3 | 6 | 6 | – | – | 3 | 3 | – | – | – | – | – | – |
| B4 | 6 | 6 | – | – | 5 | 5 | 4 | 4 | 6 | 6 | – | – |
| B5 | 6 | 6 | – | – | – | – | – | – | – | – | 1 | 1 |
